From article PMC3577899
Results are given in words; binding and its absence hold for the method and conditions named. Binding seen in cells or lysates may run through a third protein. Here binding means that the protein was enriched with, or labelled near, the bait; the list need not be complete.

B1: snRNP70K (protein, UniProt P17133 1-448)
chain: MTQYLPPNLLALFAAREPIPFMPPVDKLPHEKKSRGYLGVAKFMADFEDPKDTPLPKTVETRQERLERRRREKAEQVAYKLEREIALWDPTEIKNATEDPFRTLFIARINYDTSESKLRREFEFYGPIKKIVLIHDQESGKPKGYAFIEYEHERDMHAAYKHADGKKIDSKRVLVDVERARTVKGWLPRRLGGGLGGTRRGGNDVNIKHSGREDNERERERYRLEREREDREGPGRGGGSNGLDARPGRGFGAERRRSRSRERRDRERDRGRGAVASNGRSRSRSRERRKRRAGSRERYDEFDRRDRRDRERERDRDREREKKKKRSKSRERESSRERRERKRERRDRERGTGSGGDVKERKPDFRDMDVIKIKEEPVDDGYPTFDYQNATIKREIDDEDEEKYRPPPAHHNMFSVPPPPILGRGNASTNPNPDNGQQSSGDPSWWRQ
B2: hrp48 (protein, UniProt P48809 1-421)
chain: MEEDERGKLFVGGLSWETTQENLSRYFCRFGDIIDCVVMKNNESGRSRGFGFVTFADPTNVNHVLQNGPHTLDGRTIDPKPCNPRTLQKPKKGGGYKVFLGGLPSNVTETDLRTFFNRYGKVTEVVIMYDQEKKKSRGFGFLSFEEESSVEHVTNERYINLNGKQVEIKKAEPRDGSGGQNSNNSTVGGAYGKLGNECSHWGPHHAPINMMQGQNGQMGGPPLNMPIGAPNMMPGYQGWGTSPQQQQYGYGNSGPGSYQGWGAPPGPQGPPPQWSNYAGPQQTQGYGGYDMYNSTSTGAPSGPSGGGSWNSWNMPPNSAGPTGAPGAGAGTATDMYSRAQAWATGGPSTTGPVGGMPRTGPGNSASKSGSEYDYGGYGSGYDYDYSNYVKQEGASNYGAGPRSAYGNDSSTQPPYATSQAV
B3: PUF68 (protein, UniProt Q8T6B9 1-637)
chain: MGSNDRASRSPRSDDQREISDMPATKRTRSDSGKSTDSKIPYLSQPLYDLKQTGDVKFGPGTRSALLGLLGGALPKLSSEQHDLVSKAKKYAMEQSIKMVLMKQTLAHQQQQLATQRTQVQRQQALALMCRVYVGSISFELKEDTIRVAFTPFGPIKSINMSWDPITQKHKGFAFVEYEIPEGAQLALEQMNGALMGGRNIKVGRPSNMPQAQQVIDEVQEEAKSFNRIYVASIHPDLSEEDIKSVFEAFGPILYCKLAQGTSLHTHKGYGFIEYANKQAMDEAIASMNLFDLGGQLLRVGRSITPPNALACPTTNSTMPTAAAVAAAAATAKIQALDAVASNAVLGLSQNTPVMAAGAVVTKVGAMPVVSAATSAAALHPALAQAAPALLPPGIFQAPTPVAPSLLGVPAGLQPLQAVVPTLPPPALLATPTLPMTVGGVGVGLVPTVATLAGAEASKGAAAAAALSAAANNAAVTAANLSENIKKAHEKQQEELQKKLMDEGDVQTLQQQENMSIKGQSARQLVMQRLMRPVDSRVIILRNMVGPEDVDETLQEEIQEECSKFGTVSRVIIFNEKQTENEDDDEAEIIVKIFVEFSAGAEAMRGKEALDGRFFGGRRVVAELYDQGIFDQGDLSG
B4: Recombination Repair Protein 1 (Rrp1) (protein, UniProt P27864 1-679)
chain: MPRVKAVKKQAEALASEPTDPTPNANGNGVDENADSAAEELKVPAKGKPRARKATKTAVSAENSEEVEPQKAPTAAARGKKKQPKDTDENGQMEVVAKPKGRAKKATAEAEPEPKVDLPAGKATKPRAKKEPTPAPDEVTSSPPKGRAKAEKPTNAQAKGRKRKELPAEANGGAEEAAEPPKQRARKEAVPTLKEQAEPGTISKEKVQKAETAAKRARGTKRLADSEIAAALDEPEVDEVPPKAASKRAKKGKMVEPSPETVGDFQSVQEEVESPPKTAAAPKKRAKKTTNGETAVELEPKTKAKPTKQRAKKEGKEPAPGKKQKKSADKENGVVEEEAKPSTETKPAKGRKKAPVKAEDVEDIEEAAEESKPARGRKKAAAKAEEPDVDEESGSKTTKKAKKAETKTTVTLDKDAFALPADKEFNLKICSWNVAGLRAWLKKDGLQLIDLEEPDIFCLQETKCANDQLPEEVTRLPGYHPYWLCMPGGYAGVAIYSKIMPIHVEYGIGNEEFDDVGRMITAEYEKFYLINVYVPNSGRKLVNLEPRMRWEKLFQAYVKKLDALKPVVICGDMNVSHMPIDLENPKNNTKNAGFTQEERDKMTELLGLGFVDTFRHLYPDRKGAYTFWTYMANARARNVGWRLDYCLVSERFVPKVVEHEIRSQCLGSDHCPITIFFNI

What follows are binders tested against Polyoma (Glu-Glu) epitope-tagged full-length PSI (P element Somatic Inhibitor) (Drosophila) (assay: affinity purification with mass spectrometry; tandem immunoprecipitation from S2 RNP extract: anti-polyoma beads, elution with EYMPME peptide, RNase A treatment, then polyclonal anti-PSI beads (rabbit IgG beads in parallel as control); washes 20 mM Hepes-KOH pH 7.5, 200 mM KCl, 2 mM MgCl2, 0.05% NP-40; eluted with glycine pH 2.5).

binding, binds:
B1
B2
B3
B4
